Measured values reported in paper PMC7819943, “Rice protein-binding microarrays: a tool to detect cis-acting elements near promoter regions in rice”.
This is one part of the list.

Sequences of proteins named here, by UniProt entry; tags and fusion partners are left off.
UniProt Q0JBA9, entry or part of it: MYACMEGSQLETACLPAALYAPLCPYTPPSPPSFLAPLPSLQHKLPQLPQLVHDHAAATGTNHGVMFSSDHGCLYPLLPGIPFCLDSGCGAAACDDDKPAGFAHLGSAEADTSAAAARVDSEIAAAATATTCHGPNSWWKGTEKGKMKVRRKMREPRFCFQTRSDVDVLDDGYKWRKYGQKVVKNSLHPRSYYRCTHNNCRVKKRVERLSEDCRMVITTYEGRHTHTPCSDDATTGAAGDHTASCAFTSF

Target: OsWRKY34 (Oryza sativa, UniProt Q0JBA9 1-250)
Test: protein-binding microarray (RPBM); PBS, 2% BSA, 51.3 ng/ul salmon testes DNA, 50 uM zinc acetate, 200 nM TF, 25 C, 1 h; high values mean tight binding
Details: protein: recombinant; tags: N-terminal polyhistidine and DsRed monomer fusion (pET32a); label: CyDye5-dUTP incorporated in the synthesized complementary strand; 3' TTTTT single-stranded linker to array surface; dsDNA, one strand shown
Summary of the method: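 The binding signal is fluorescence intensity per array feature (arbitrary units). Readings came from an Axon 4000B scanner after a washed, 2% BSA-blocked, double-stranded custom Agilent array had been incubated for 1 h at 25 °C with 200 nM protein and 50 µM zinc acetate. The protein was a Ni–NTA-purified transcription factor fused N-terminally to polyhistidine and DsRed, expressed in E. coli BL21-CodonPlus.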

Row | Sequence | binding signal
1 | AAGATCGGTCATCGCTTTTCCTTGTTCTTCTTAGTTCATCCGGAGTCACCTAGTGCAG | 12700 fluorescence intensity (a.u.)
2 | ATCGCTACATTCCTGGAGGCATCCAGTTGATTCCACTCAACGGAGTCACCTAGTGCAG | 10200 fluorescence intensity (a.u.)
3 | CTGTCCAACTGCCAGTCAGCTAGCCCCAAGTGTATACTCTCGGAGTCACCTAGTGCAG | 8620 fluorescence intensity (a.u.)
4 | GTCCATCACGGCCGGACAAACCTCGCCGCTTCGCTTCGCTCGGAGTCACCTAGTGCAG | 8220 fluorescence intensity (a.u.)
5 | CATTAAAGCTTTTTTACACACGTAAACTTCTAACTTTTTCCGGAGTCACCTAGTGCAG | 10100 fluorescence intensity (a.u.)
6 | CGTCGCCTTCGTCTTCGTCTTCGTCGTCGTCCTCATCATGCGGAGTCACCTAGTGCAG | 9100 fluorescence intensity (a.u.)
7 | GTCAAGCTACGCCGCTCTGGCCGTCGGCCACTCCGCCCCACGGAGTCACCTAGTGCAG | 8580 fluorescence intensity (a.u.)
8 | TTCGTTTTCGTTTTCTTTCCCCTTTTTCTGTCGGTTAATTCGGAGTCACCTAGTGCAG | 10100 fluorescence intensity (a.u.)
9 | GTATTCTATTTTTTCATTCTCATATATTTGTTATCGCACACGGAGTCACCTAGTGCAG | 10300 fluorescence intensity (a.u.)
10 | TTCAGTTTAGATACTTTTCTCGATATTCGTTAGCATATATCGGAGTCACCTAGTGCAG | 8430 fluorescence intensity (a.u.)
11 | GTCGTGTATATATACGCATTCATGTGTGTCAAGGCAATATCGGAGTCACCTAGTGCAG | 8300 fluorescence intensity (a.u.)
12 | ACTACTTAATTTAGCTTATTTTGCATACTTGGTTTCTACACGGAGTCACCTAGTGCAG | 10000 fluorescence intensity (a.u.)
13 | AATCCTGTTGTTGTGGTCTATCGCTTACAACTCTAATACTCGGAGTCACCTAGTGCAG | 8860 fluorescence intensity (a.u.)
14 | TAATACTCCCTCCGTATTTTAATGTATGATGCCGTTGACTCGGAGTCACCTAGTGCAG | 10600 fluorescence intensity (a.u.)
15 | CAACCCGGCCGGCCACCTTTTTCCTGTCGATCGTGTGTTGCGGAGTCACCTAGTGCAG | 8400 fluorescence intensity (a.u.)
16 | TCCGCCACACCTTTTACTACCGATGGAACTGAGTTTTACTCGGAGTCACCTAGTGCAG | 8130 fluorescence intensity (a.u.)
17 | TTGCACATTGGATCATTCTTGTGTTCCATGCCTCTAACCTCGGAGTCACCTAGTGCAG | 8920 fluorescence intensity (a.u.)
18 | TTTGAAGTACTGGTCAGCAAGTTTTTACTCTCTCCTCGCTCGGAGTCACCTAGTGCAG | 8530 fluorescence intensity (a.u.)
19 | TGTTTTTTTTTGTGTTCTATATGTTGTTTCCCGTGGTCGTCGGAGTCACCTAGTGCAG | 12100 fluorescence intensity (a.u.)
20 | TTCTGATTTCTTACTATTCAACATCATATCTTTTTGTGATCGGAGTCACCTAGTGCAG | 9320 fluorescence intensity (a.u.)
21 | CTCAGTCGACCAATCGTTGATCGCCACGTCGGCTGTTCTTCGGAGTCACCTAGTGCAG | 8350 fluorescence intensity (a.u.)

Row | Sequence | binding signal
22 | ATTTTTTTTTTCACGTGCCGATTGGCCTTATGTTGAAATCCGGAGTCACCTAGTGCAG | 10300 fluorescence intensity (a.u.)
23 | CACCTTCTTTTGCTGCTAATCACGTTTTAGTTCGAATTAACGGAGTCACCTAGTGCAG | 9270 fluorescence intensity (a.u.)
24 | CTTCTTTGTTCTGATTGCTCCCATTGACTTCATTATTGACCGGAGTCACCTAGTGCAG | 13000 fluorescence intensity (a.u.)
25 | GTTCCTTGATGATTATACCACTTCACCTTTGTTTTTTTTTCGGAGTCACCTAGTGCAG | 10200 fluorescence intensity (a.u.)
26 | GGTTTGCACTTTTTATTTCAGCGAAAATTTCTGTAGCACCCGGAGTCACCTAGTGCAG | 8360 fluorescence intensity (a.u.)
27 | AGTGAACATGCTGGTTTTTAGCTATATTTGTAACAACGTTCGGAGTCACCTAGTGCAG | 9120 fluorescence intensity (a.u.)
28 | ATCTAACTGTTGTCGATCTGGCGGTCTGACGATCTGACTCCGGAGTCACCTAGTGCAG | 12700 fluorescence intensity (a.u.)
29 | GTGTGCTTGACTAGGTTGCCGTTGATTTGTGTTTTGACTTCGGAGTCACCTAGTGCAG | 10000 fluorescence intensity (a.u.)
30 | GTCTGCGAGGTCAGCTCACCTTGAAAATGTTAGGGTTTTTCGGAGTCACCTAGTGCAG | 8170 fluorescence intensity (a.u.)
31 | TCTTTTGTTTTCCTCTTTCTTCACCCTTGCGCTGCCGTTCCGGAGTCACCTAGTGCAG | 12100 fluorescence intensity (a.u.)
32 | ATGGCGGAGCTCTCGTTCCTGTTATTCTTGCATGCCAAGTCGGAGTCACCTAGTGCAG | 9180 fluorescence intensity (a.u.)
33 | GCGAGAGTGGTGGTGGTGGTGGCCTCGTAGTGGAGAGCGACGGAGTCACCTAGTGCAG | 9230 fluorescence intensity (a.u.)
34 | TGTCCGTCTCCGACCTGCCCATGCTGTCGTGCCACTACATCGGAGTCACCTAGTGCAG | 9660 fluorescence intensity (a.u.)
35 | CCACTCCAGCGCCTCACCGTACACTCCACCGTAGCTCGGTCGGAGTCACCTAGTGCAG | 11600 fluorescence intensity (a.u.)
36 | TTAATTCTGTATTTATGGCATGATCATGTTATCTCCTTAACGGAGTCACCTAGTGCAG | 8910 fluorescence intensity (a.u.)
37 | GATAATGGCTACCGTGCTGGATTCATGTCACCCACTTCTCCGGAGTCACCTAGTGCAG | 10000 fluorescence intensity (a.u.)
38 | AGTCATTATGCCATGTCTATATATTTTTGTTTGTTTTTTCCGGAGTCACCTAGTGCAG | 10100 fluorescence intensity (a.u.)
39 | CTCACACTCTGATCATCCATCCGCGGGTGGGTTGACCTCTCGGAGTCACCTAGTGCAG | 9350 fluorescence intensity (a.u.)
40 | TCGTAAAGTTTTGATTGCTCTTTTTTTCTTTAACTAATCACGGAGTCACCTAGTGCAG | 8180 fluorescence intensity (a.u.)
41 | TCCGTCACTCGCTCGCCGCGCTATATAAACCCCACATCCTCGGAGTCACCTAGTGCAG | 9940 fluorescence intensity (a.u.)
42 | TGGGCTTCATCTTGTCTTGTTGTTGCTAGTACTTTCTAGACGGAGTCACCTAGTGCAG | 9690 fluorescence intensity (a.u.)

Looked up one by one from the list above, two records:
Row | Sequence | binding signal
37 | GATAATGGCTACCGTGCTGGATTCATGTCACCCACTTCTCCGGAGTCACCTAGTGCAG | 10000 fluorescence intensity (a.u.)
9 | GTATTCTATTTTTTCATTCTCATATATTTGTTATCGCACACGGAGTCACCTAGTGCAG | 10300 fluorescence intensity (a.u.)
